{"source": "PubChem BioAssay AID504744 (Drosophila RNAi Screening Center, 2011)", "screen": "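Find genes whose loss alters insulin-driven dAkt phosphorylation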 (primary screen)", "cell system": "Drosophila Kc167 cells", "knock-down reagent": "long dsRNA against Drosophila genes, 250 ng dsRNA per well of a 384-well plate", "timing": "3 days of knock-down, then overnight serum-free starvation before stimulation", "conditions": "bovine insulin at 387 nM for 10 minutes after 12 h without serum", "measured": "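Per-well phospho-dAkt level from an in-cell fluorescent antibody stain, divided by a DNA-dye signal; log2 residuals turned into z-scores that take cell number into account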", "rule for the call": "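Under insulin, a gene counts as a hit if the average z-score of two replicates lies above 2.5 or below -2.5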", "note": "The deposit covers about 23,000 reagents; shown is an unselected part of those with a known target gene and a result. Of all reagents, 98 (0.43%) were called active. 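Only hit calls are given; the phospho-dAkt signals, z-scores and hit direction were not deposited.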"}
{"gene": "Adf1", "amplicon": "DRSC04941", "outcome": "inactive"}
{"gene": "Adf1", "amplicon": "DRSC04963", "outcome": "inactive"}
{"gene": "CG3552", "amplicon": "DRSC10370", "outcome": "inactive"}
{"gene": "CG18233", "amplicon": "DRSC10308", "outcome": "inactive"}
{"gene": "ClpP", "amplicon": "DRSC02806", "outcome": "inactive"}
{"gene": "sac", "amplicon": "DRSC12237", "outcome": "inactive"}
{"gene": "Rfk", "amplicon": "DRSC15454", "outcome": "inactive"}
{"gene": "CG32112", "amplicon": "DRSC09815", "outcome": "inactive"}
{"gene": "gas", "amplicon": "DRSC04521", "outcome": "inactive"}
{"gene": "niki", "amplicon": "DRSC14285", "outcome": "inactive"}
{"gene": "Pbp95", "amplicon": "DRSC15448", "outcome": "inactive"}
{"gene": "crn", "amplicon": "DRSC18184", "outcome": "inactive"}
{"gene": "crn", "amplicon": "DRSC18185", "outcome": "inactive"}
{"gene": "crn", "amplicon": "DRSC18755", "outcome": "active"}
{"gene": "az2", "amplicon": "DRSC07580", "outcome": "inactive"}
{"gene": "santa-maria", "amplicon": "DRSC00994", "outcome": "inactive"}
{"gene": "santa-maria", "amplicon": "DRSC02180", "outcome": "inactive"}
{"gene": "Lpt", "amplicon": "DRSC04291", "outcome": "inactive"}
{"gene": "Lpt", "amplicon": "DRSC04515", "outcome": "inactive"}
{"gene": "nmd", "amplicon": "DRSC02856", "outcome": "inactive"}
{"gene": "Ir68a", "amplicon": "DRSC10599", "outcome": "inactive"}
{"gene": "Or33b", "amplicon": "DRSC03387", "outcome": "inactive"}
{"gene": "CG15614", "amplicon": "DRSC06567", "outcome": "inactive"}
{"gene": "Ald1", "amplicon": "DRSC14109", "outcome": "inactive"}
{"gene": "STUB1", "amplicon": "DRSC03282", "outcome": "inactive"}
{"gene": "CG17660", "amplicon": "DRSC00513", "outcome": "inactive"}
{"gene": "Cp15", "amplicon": "DRSC11118", "outcome": "inactive"}
{"gene": "und", "amplicon": "DRSC03629", "outcome": "inactive"}
{"gene": "CG42335", "amplicon": "DRSC14597", "outcome": "inactive"}
{"gene": "CG42335", "amplicon": "DRSC15892", "outcome": "inactive"}
{"gene": "CG32811", "amplicon": "DRSC22649", "outcome": "inactive"}
{"gene": "CG13837", "amplicon": "DRSC14687", "outcome": "inactive"}
{"gene": "Cpr78E", "amplicon": "DRSC11807", "outcome": "inactive"}
{"gene": "CG15369", "amplicon": "DRSC18041", "outcome": "inactive"}
{"gene": "kek6", "amplicon": "DRSC15299", "outcome": "inactive"}
{"gene": "CG34267", "amplicon": "DRSC07881", "outcome": "inactive"}
{"gene": "VhaM9.7-a", "amplicon": "DRSC08289", "outcome": "inactive"}
{"gene": "l(2)k09848", "amplicon": "DRSC04894", "outcome": "inactive"}
{"gene": "CG1946", "amplicon": "DRSC06804", "outcome": "inactive"}
{"gene": "mex1", "amplicon": "DRSC11368", "outcome": "inactive"}
{"gene": "CG8851", "amplicon": "DRSC00718", "outcome": "inactive"}
{"gene": "Gr92a", "amplicon": "DRSC21631", "outcome": "inactive"}
{"gene": "cnk", "amplicon": "DRSC07595", "outcome": "inactive"}
{"gene": "CG5339", "amplicon": "DRSC04496", "outcome": "inactive"}
{"gene": "CG14618", "amplicon": "DRSC20631", "outcome": "inactive"}
{"gene": "CG46339", "amplicon": "DRSC14136", "outcome": "inactive"}
{"gene": "kibra", "amplicon": "DRSC14533", "outcome": "inactive"}
{"gene": "kibra", "amplicon": "DRSC16257", "outcome": "inactive"}
{"gene": "SmD2", "amplicon": "DRSC12536", "outcome": "inactive"}
{"gene": "chm", "amplicon": "DRSC03341", "outcome": "inactive"}
{"gene": "mtd", "amplicon": "DRSC12131", "outcome": "inactive"}
{"gene": "mtd", "amplicon": "DRSC12380", "outcome": "inactive"}
{"gene": "mtd", "amplicon": "DRSC12381", "outcome": "inactive"}
{"gene": "ca", "amplicon": "DRSC15305", "outcome": "inactive"}
{"gene": "ca", "amplicon": "DRSC15306", "outcome": "inactive"}
{"gene": "ca", "amplicon": "DRSC16314", "outcome": "inactive"}
{"gene": "Or98a", "amplicon": "DRSC16774", "outcome": "inactive"}
